The values that follow come from paper PMC8834437, “Physical Interaction between Embryonic Stem Cell-Expressed Ras (ERas) and Arginase-1 in Quiescent Hepatic Stellate Cells” (Cells, 2022).

These are yes or no findings as the source states them, for the method shown. Binding calls can cover weak binding; strength is not graded here.

Experiment [1] deals with GST-ERas G-domain, human (human). Put plainly: pull-down; GST-fusion proteins immobilized on GSH agarose beads, mixed with purified ARG1, 1 h at 4 °C; both purified.
The target in experiment [2] is GST-ERas G-domain, rat (rat). Described as above.

B1: purified arginase 1 (ARG1; aa 1-322) (enzyme, UniProt P05089 1-322)
chain: MSAKSRTIGIIGAPFSKGQPRGGVEEGPTVLRKAGLLEKLKEQECDVKDYGDLPFADIPNDSPFQIVKNPRSVGKASEQLAGKVAEVKKNGRISLVLGGDHSLAIGSISGHARVHPDLGVIWVDAHTDINTPLTTTSGNLHGQPVSFLLKELKGKIPDVPGFSWVTPCISAKDIVYIGLRDVDPGEHYILKTLGIKYFSMTEVDRLGIGKVMEETLSYLLGRKKRPIHLSFDVDGLDPSFTPATGTPVVGGLTYREGLYITEEIYKTGLLSGLDIMEVNPSLGKTPEEVTRTVNTAVAITLACFGLAREGNHKPIDYLNPPK
With B1, the binding entry in experiment [1] and in experiment [2] was “binds” throughout.
